In article PMC11653702, “Targeting the SPC25/RIOK1/MYH9 Axis to Overcome Tumor Stemness and Platinum Resistance in Epithelial Ovarian Cancer” (Advanced Science, 2024):
These are yes or no findings as the source states them, for the method shown. For some of these results: In cells and extracts the contact can be indirect. Some results given as binding are weak or reduced against the parent protein; the word gives no strength. Blank lines part the entries; values can stand above or below the molecule they belong to.

The chains behind the UniProt entries cited, without tags or fusion partners.
UniProt Q9HBM1: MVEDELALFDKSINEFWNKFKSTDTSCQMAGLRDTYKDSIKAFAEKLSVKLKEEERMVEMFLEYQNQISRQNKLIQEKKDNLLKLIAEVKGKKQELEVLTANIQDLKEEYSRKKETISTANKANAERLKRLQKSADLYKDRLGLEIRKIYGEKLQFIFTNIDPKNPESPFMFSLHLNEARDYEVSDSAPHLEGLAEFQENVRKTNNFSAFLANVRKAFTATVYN
UniProt P35579: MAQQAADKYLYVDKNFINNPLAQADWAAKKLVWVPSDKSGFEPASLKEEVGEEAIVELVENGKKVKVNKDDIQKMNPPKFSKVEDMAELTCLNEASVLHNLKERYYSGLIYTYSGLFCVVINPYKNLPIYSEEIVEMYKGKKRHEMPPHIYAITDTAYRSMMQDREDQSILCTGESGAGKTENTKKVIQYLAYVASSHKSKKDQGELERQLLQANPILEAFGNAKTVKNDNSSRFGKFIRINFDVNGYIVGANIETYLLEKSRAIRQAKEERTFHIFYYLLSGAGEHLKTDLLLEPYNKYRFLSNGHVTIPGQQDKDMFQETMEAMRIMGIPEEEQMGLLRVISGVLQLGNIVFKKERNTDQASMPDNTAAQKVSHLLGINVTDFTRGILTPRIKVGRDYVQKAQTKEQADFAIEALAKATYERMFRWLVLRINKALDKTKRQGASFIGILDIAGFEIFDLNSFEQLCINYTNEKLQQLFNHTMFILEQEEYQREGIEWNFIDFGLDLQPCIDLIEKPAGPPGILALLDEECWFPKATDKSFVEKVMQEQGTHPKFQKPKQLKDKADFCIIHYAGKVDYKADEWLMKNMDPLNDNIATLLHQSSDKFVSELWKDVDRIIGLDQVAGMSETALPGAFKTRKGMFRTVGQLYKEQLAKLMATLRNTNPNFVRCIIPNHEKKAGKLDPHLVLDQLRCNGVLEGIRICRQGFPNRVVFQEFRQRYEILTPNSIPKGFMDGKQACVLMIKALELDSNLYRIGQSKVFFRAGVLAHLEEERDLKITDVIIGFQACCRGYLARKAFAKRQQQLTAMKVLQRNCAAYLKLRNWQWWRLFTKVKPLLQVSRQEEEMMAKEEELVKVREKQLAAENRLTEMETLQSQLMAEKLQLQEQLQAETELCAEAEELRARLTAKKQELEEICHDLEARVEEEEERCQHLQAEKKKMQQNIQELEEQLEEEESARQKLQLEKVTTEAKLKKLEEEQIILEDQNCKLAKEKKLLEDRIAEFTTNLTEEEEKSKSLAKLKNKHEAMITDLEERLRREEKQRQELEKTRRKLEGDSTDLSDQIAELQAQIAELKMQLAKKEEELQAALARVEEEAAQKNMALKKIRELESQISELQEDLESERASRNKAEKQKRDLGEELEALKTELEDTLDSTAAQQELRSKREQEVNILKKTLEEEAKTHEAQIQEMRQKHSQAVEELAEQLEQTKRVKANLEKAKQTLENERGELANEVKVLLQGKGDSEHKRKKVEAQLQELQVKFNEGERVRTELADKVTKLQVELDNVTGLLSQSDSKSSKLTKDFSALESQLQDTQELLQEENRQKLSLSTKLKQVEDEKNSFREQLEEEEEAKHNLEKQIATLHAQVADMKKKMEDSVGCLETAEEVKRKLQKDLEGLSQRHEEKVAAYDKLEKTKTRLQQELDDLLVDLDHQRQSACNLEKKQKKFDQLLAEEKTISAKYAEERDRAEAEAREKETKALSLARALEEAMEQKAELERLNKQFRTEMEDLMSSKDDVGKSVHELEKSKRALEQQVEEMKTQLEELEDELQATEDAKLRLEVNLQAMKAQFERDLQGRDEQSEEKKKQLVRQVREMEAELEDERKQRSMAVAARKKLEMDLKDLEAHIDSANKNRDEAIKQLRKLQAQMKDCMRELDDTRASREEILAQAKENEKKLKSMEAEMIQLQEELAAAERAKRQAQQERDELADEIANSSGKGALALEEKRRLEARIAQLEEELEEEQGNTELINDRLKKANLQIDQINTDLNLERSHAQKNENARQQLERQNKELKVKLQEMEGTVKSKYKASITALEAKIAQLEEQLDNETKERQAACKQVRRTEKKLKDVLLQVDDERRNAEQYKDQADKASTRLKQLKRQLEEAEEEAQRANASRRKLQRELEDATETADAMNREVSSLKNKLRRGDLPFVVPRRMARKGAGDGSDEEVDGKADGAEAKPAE

Tests used:
[1] = biological target: full-length (FL) Flag-tagged SPC25 (UniProt Q9HBM1); assay: co-IP; HEK293FT cells transfected with SPC25-Flag and MYH9-Myc constructs or their truncations; IP with Flag-beads (SPC25 truncations) or Myc-beads (MYH9 truncations)
[2] = biological target: spindle pole body component 25 (SPC25), endogenous (human (endogenous in OVCAR8)) (UniProt Q9HBM1); assay: co-IP; endogenous SPC25 and MYH9, OVCAR8 cells
[3] = biological target: purified SPC25 (UniProt Q9HBM1); assay: pull-down; in vitro GST pull-down with two purified proteins from a prokaryotic expression system; both purified
[4] = biological target: purified SPC25 (UniProt Q9HBM1); assay: cross-linking; in vitro crosslinking of purified SPC25, MYH9 and RIOK1 with disuccinimidyl suberate (DSS), rising SPC25 levels, Western blotting with anti-SPC25; both purified
[5] = biological target: full-length (FL) Flag-tagged SPC25 (UniProt Q9HBM1); assay: co-IP; exogenous SPC25 and RIOK1 (Figure S6L); cells and tags not given
[6] = biological target: purified SPC25 (UniProt Q9HBM1); assay: pull-down; in vitro GST pull-down with two purified proteins from a prokaryotic expression system; both purified; remark: listed apart in the source
[7] = biological target: spindle pole body component 25 (SPC25), endogenous (human (endogenous in OVCAR8)) (UniProt Q9HBM1); assay: co-IP; endogenous SPC25 and RIOK1 (Figure S6K); cells not given
[8] = biological target: spindle pole body component 25 (SPC25), endogenous (human (endogenous in OVCAR8)) (UniProt Q9HBM1); assay: co-IP; endogenous RIOK1 with SPC25 or MYH9 in OVCAR8 cells treated with the indicated peptides (CBP1 at 5 µM)
[9] = biological target: spindle pole body component 25 (SPC25), endogenous (human (endogenous in OVCAR8)) (UniProt Q9HBM1); assay: proximity ligation; PLA of SPC25 and RIOK1 in OVCAR8 cells treated with control peptide or CBP1; foci per cell

Molecule: MYH9, also called nonmuscle myosin IIA (NMIIA), endogenous (from UniProt P35579 1-1960)
- binding [2]: binds

Molecule: purified MYH9 (from UniProt P35579 1-1960)
- binding [3]: binds
- binding [4]: binds

B3: RIOK1, endogenous (enzyme, UniProt Q9BRS2 1-568)
chain: MDYRRLLMSRVVPGQFDDADSSDSENRDLKTVKEKDDILFEDLQDNVNENGEGEIEDEEEEGYDDDDDDWDWDEGVGKLAKGYVWNGGSNPQANRQTSDSSSAKMSTPADKVLRKFENKINLDKLNVTDSVINKVTEKSRQKEADMYRIKDKADRATVEQVLDPRTRMILFKMLTRGIITEINGCISTGKEANVYHASTANGESRAIKIYKTSILVFKDRDKYVSGEFRFRHGYCKGNPRKMVKTWAEKEMRNLIRLNTAEIPCPEPIMLRSHVLVMSFIGKDDMPAPLLKNVQLSESKARELYLQVIQYMRRMYQDARLVHADLSEFNMLYHGGGVYIIDVSQSVEHDHPHALEFLRKDCANVNDFFMRHSVAVMTVRELFEFVTDPSITHENMDAYLSKAMEIASQRTKEERSSQDHVDEEVFKRAYIPRTLNEVKNYERDMDIIMKLKEEDMAMNAQQDNILYQTVTGLKKDLSGVQKVPALLENQVEERTCSDSEDIGSSECSDTDSEEQGDHARPKKHTTDPDIDKKERKKMVKEAQREKRKNKIPKHVKKRKEKTAKTKKGK
- binding [7]: binds
- binding [8]: binds
- binding [9]: binds

Now from value to molecule:

- binding [1]: binds
Molecule: MYH9-Myc (from UniProt P35579 1-1960)

- binding [5]: binds
B1: exogenous RIOK1 (exogenous protein IP assay) (enzyme, UniProt Q9BRS2 1-568)
chain: MDYRRLLMSRVVPGQFDDADSSDSENRDLKTVKEKDDILFEDLQDNVNENGEGEIEDEEEEGYDDDDDDWDWDEGVGKLAKGYVWNGGSNPQANRQTSDSSSAKMSTPADKVLRKFENKINLDKLNVTDSVINKVTEKSRQKEADMYRIKDKADRATVEQVLDPRTRMILFKMLTRGIITEINGCISTGKEANVYHASTANGESRAIKIYKTSILVFKDRDKYVSGEFRFRHGYCKGNPRKMVKTWAEKEMRNLIRLNTAEIPCPEPIMLRSHVLVMSFIGKDDMPAPLLKNVQLSESKARELYLQVIQYMRRMYQDARLVHADLSEFNMLYHGGGVYIIDVSQSVEHDHPHALEFLRKDCANVNDFFMRHSVAVMTVRELFEFVTDPSITHENMDAYLSKAMEIASQRTKEERSSQDHVDEEVFKRAYIPRTLNEVKNYERDMDIIMKLKEEDMAMNAQQDNILYQTVTGLKKDLSGVQKVPALLENQVEERTCSDSEDIGSSECSDTDSEEQGDHARPKKHTTDPDIDKKERKKMVKEAQREKRKNKIPKHVKKRKEKTAKTKKGK

- binding [6]: binds
- binding [4]: binds
B2: purified RIOK1 (enzyme, UniProt Q9BRS2 1-568)
chain: MDYRRLLMSRVVPGQFDDADSSDSENRDLKTVKEKDDILFEDLQDNVNENGEGEIEDEEEEGYDDDDDDWDWDEGVGKLAKGYVWNGGSNPQANRQTSDSSSAKMSTPADKVLRKFENKINLDKLNVTDSVINKVTEKSRQKEADMYRIKDKADRATVEQVLDPRTRMILFKMLTRGIITEINGCISTGKEANVYHASTANGESRAIKIYKTSILVFKDRDKYVSGEFRFRHGYCKGNPRKMVKTWAEKEMRNLIRLNTAEIPCPEPIMLRSHVLVMSFIGKDDMPAPLLKNVQLSESKARELYLQVIQYMRRMYQDARLVHADLSEFNMLYHGGGVYIIDVSQSVEHDHPHALEFLRKDCANVNDFFMRHSVAVMTVRELFEFVTDPSITHENMDAYLSKAMEIASQRTKEERSSQDHVDEEVFKRAYIPRTLNEVKNYERDMDIIMKLKEEDMAMNAQQDNILYQTVTGLKKDLSGVQKVPALLENQVEERTCSDSEDIGSSECSDTDSEEQGDHARPKKHTTDPDIDKKERKKMVKEAQREKRKNKIPKHVKKRKEKTAKTKKGK
